According to article PMC3342935:

B1: ASH-2 (protein, UniProt G5EFZ3 1-570)
chain: MRSSKGGRGRQAAPKTAPTTVCYCDGKRELGSVEVVCSTCLKWFHGRCLKEFHELNSNGVPFMICYTFTCKQCRPTAEDWKAKKADLVQMCVTVLATLSAERLKADGKLSAEHVPEDFTYLSLKDEIVPYMNENWYMLTAIKQKKEWHQNLAPTLLKEKNIFVQHNDDDDLFALAEKNLSLLGPLHEAVKLIGKRPIERENREPRHIELPPIEGPKTRGASKRRHAEAPVTGKKQKLAADYSSTAAPNGVQIDIPFSKDNYRYYLTEVDPNVPEDPAWNQNQSSAYVIPSFHYRELLNPTVNVSSNDRAFQLSINGNSITGFEGYSMARASHGVSKGTWYFEVNFDDQPDDSHIRIGWSQSYASLQACVGYNKFSYGWRSKHGTKFHEAKGKKYHFGGFKQGDVLGCLIHLPVDKKLQIPANLPSEKYLPVSHKGFNLISFKANYFFEVQEESADIAKTLVEMPGSYIEFFHNGKSCGKAYENIYAGAYYPSISIFKSATATMNLGPKFRNLPRGATGIHARADEQQHEQTLSDMLYLVSKEVNLDHPPRVKREDDDDVKDIKKEIKQEI
B2: RBBP-5 (protein, UniProt Q09309 1-454)
chain: MVEILDRTYGAQFPEELECHLDLQNASANCCKFNRWGSIVAVGCTDGRVLIYDFMTRNIARTFSAHCLPVSCLSWSRDGRKLLTSSADNSIAMFDVLAGTLLHRIRFNSMVTFAMFHPRNDNKAIVLQVNKQPTVEQFSPRIQTVLANDTPGSSDESASCVSYDRKGKYIIAGTGKGKLLIYNAETLKCVAWCKQNTVQQIRQIIVPMKSRFIITNTQDRVIRTYELEDLLHQRGQMVEAKYKVLDMVNKAAWKNVCTDSDGLYVCGASTKAHSLYIWESNTGSLIKILHGNKGEALLDVQWHPTRPIILSIAQGTVSMWTQAHVENWSAFAPEFQELEENEKYIEKENEFDMEDEDADEDMTSKSQDAEDDIIDVVNVRPEDYLASSDEEDCNIMKPARNLESGPLWYIPVPLDIENADNDQRLPDDIRNLDNLLNPAWVASAKGYELSPKSK
B3: MIX-1 (protein, UniProt Q09591 1-1244)
chain: MHIKSIHLDGFKSYQKHTDILDFSPTFNAITGYNGSGKSNILDSICFIMGINKLDNIRAKSMHELISHGGTKAIVQVRFDNTDKRCSPFGMEHLDEIVVQRIITAQATGKGCATSYTLNGHAATNGKMQDFFRGVGLNVNNPHFLIMQGRITTVLNMKPEEILGMVEEAAGTKMYDQKKKDAEKTMFLKDAKLKEVDRIFQSSIDPRMVKFREDRKNMVEVTRLKKLKENFSRKYEAFQYFQTCEAVKKSAKEIEDAKKGIEDLGEKFNQLDLDLKNKEDEKKKMEESRDDQHEEAALSAAHLSKQSIMLQKETVKNQLVETINKLKKEGEQINKSLSKDREVLDAKRKEHEDSKAANSKDIQSQSDDEALVTKYRNDLESLTRGTIANDKGEHVSIESEIQSCKSTASQMSSGITAAKKRGERLHNQIKHLEGEKATLSARSKSDIGSADNYQKEVDEINKQLQLLGFNIDADTEKREHAAKLHESITKLKDMDTRLLNSYKDGRYALNYQRPPLHIDKFDEKRDVFGYVAHLIKMKPGCEQFAVAADIALGGVLGNVVVSTQDIARILIDGKAFTSRKTMIPVSENARNASSYNTLPDVKLRRAKEIAEKYNDTVTKMIDLIEYPDFISNTILNAVGQILVVDSLDVAREIAYDEVAKTRMITRRGDDVRTNGIMTGGYNDPGNKPALIALEPMYARRPQIEAQQRELDALNRELQLTEASSQKCRDLNNQLATAMRKLAQVKTNINNSEFGIVVRDLKVHSEEYEKNQAEIEATVKTLKDVEDKIKTLESMKNKDKNSQEKRKKELTALLQKAEQTVAQNKNRGEKARREVMLLQATVEEMEKTIKKDEGIWEQKKKECDELEEKLPNAIAALKDAELEQKAAQAKLNDLKNNQRQISTRLGKIAKECDALIREKAKTKSKREEKEKELTSLQQSEASNRKEARSKLKKFEWLSDEEAHFNKKGGLYDFEGYTVSKGKDEIKELTDKIETLERSCCIQNVSNLDTCEAKVLDIKNKRERITEDFNMLKKTIATLDKKKVDELIRAHESVNKDFGQIFNCLLPDAHASLVPPEGKTVCEGLEVKVSFGGVVKDSLHELSGGQRSLVALSLILAMLKFKPAPLYILDEVDAALDLSHTANIGMMIKTHFHHNQFIIVSLKQGMFSNADVLFQTRFADGHSTCTRLNGGDIAVLCQDKVLQAQALELTDAGKAKKDAAAKKGAQKNDKEPPKKKPIVVDDDDFE

Target: UTX-1::GFP (C. elegans)
Experiment: affinity purification with mass spectrometry; GFP-Trap beads on total protein extract (about 200 mg) of mixed eggs and adults of utx-1(tm3118) rescued with UTX-1::GFP; IP buffer 300 mM KCl, 0.1% Igepal, 1 mM EDTA, 1 mM MgCl2, 10% glycerol, 50 mM Tris HCl pH 7.4; elution with 0.1 M glycine pH 2.5; LC-MS/MS of 21 gel slices; N2 lysate as control

| Binder | binding |
| --- | --- |
| B1 | binds |
| B2 | binds |
| B3 | binds |

Results are given in words; binding and its absence hold for the method and conditions named. In cells and extracts the contact can be indirect. These calls come from enrichment with a bait or labelling near it, and not all partners need be listed.
